Values from PubChem BioAssay AID504774 (Drosophila RNAi Screening Center, 2011).

Test: 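Genes required for cells to withstand methyl methanesulphonate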 (primary screen)
Cell system: Drosophila Kc167 cells
Reagent: long dsRNA against Drosophila genes, about 0.25 µg dsRNA per well
Duration: about 6 days: 3 days knock-down, then 3 days with or without MMS
Conditions: methyl methanesulphonate 0.004% (w/v) for 3 days after knock-down
Measured: 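Viability in wells given MMS, read as ATP luminescence, normalised by quantiles plate by plate and averaged across replicates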
Scale: mean viability with MMS: higher = more surviving cells after MMS
The screen tested about 23,000 reagents; below is a random part of those with a known target gene and a result. 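Values are quantile-normalised luminescence on an arbitrary scale; higher means more cells surviving MMS.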 A plus sign joins genes that one reagent is predicted to hit. Further read-outs or replicates are left out here.

What did the screen give for CG32021 (retired record) [DRSC17206]?
mean viability with MMS: 3.48e6

What did the screen give for Fs [DRSC06258]?
mean viability with MMS: 3.61e6

With Fs [DRSC06259], how do the results read?
mean viability with MMS: 3.63e6

What did the screen give for CG33120 [DRSC02073]?
mean viability with MMS: 3.47e6

With Mppe [DRSC07296], how do the results read?
mean viability with MMS: 3.60e6

What did the screen give for alpha-Catr [DRSC04669]?
mean viability with MMS: 3.47e6

How did the screen score GstE10 [DRSC06671]?
mean viability with MMS: 3.59e6

With CG12594 [DRSC14532], how do the results read?
mean viability with MMS: 3.74e6

What is on record for Su(var)2-HP2 [DRSC06204]?
mean viability with MMS: 3.51e6

With ph-d [DRSC18819], what does the deposit list?
mean viability with MMS: 2.95e6

Which result is listed for ph-d [DRSC23191]?
mean viability with MMS: 3.79e6

With CG18666 [DRSC02694], what was measured?
mean viability with MMS: 3.71e6

With Cyp40 [DRSC10980], how do the results read?
mean viability with MMS: 3.55e6

How did the screen score CG31999 [DRSC17131]?
mean viability with MMS: 3.51e6

For CG31999 [DRSC17133], what was measured?
mean viability with MMS: 3.54e6

What is on record for Spt5 [DRSC07556]?
mean viability with MMS: 3.21e6

What did the screen give for spag4 [DRSC02973]?
mean viability with MMS: 3.41e6

Which result is listed for wls [DRSC10605]?
mean viability with MMS: 3.63e6

With CG11342 [DRSC08175], what was measured?
mean viability with MMS: 3.42e6

How did the screen score CG7653 [DRSC01886]?
mean viability with MMS: 3.51e6

Which result is listed for CG4282 [DRSC06865]?
mean viability with MMS: 3.61e6

For CG15073 [DRSC06506], what was measured?
mean viability with MMS: 3.59e6

How did the screen score dgt2 [DRSC02548]?
mean viability with MMS: 3.53e6

With ro [DRSC17046], what was measured?
mean viability with MMS: 3.54e6

What did the screen give for unc-119 [DRSC18846]?
mean viability with MMS: 3.56e6

What is on record for CG14564 [DRSC11725]?
mean viability with MMS: 3.79e6

How did the screen score CG14564 [DRSC22388]?
mean viability with MMS: 3.44e6

With CG42821 + CG42822 [DRSC13231], how do the results read?
mean viability with MMS: 3.49e6

What did the screen give for CG42821 + CG42822 [DRSC13232]?
mean viability with MMS: 3.54e6

Which result is listed for lncRNA:CR32368 [DRSC08899]?
mean viability with MMS: 3.44e6

What did the screen give for nkt [DRSC10144]?
mean viability with MMS: 3.75e6

What did the screen give for norpA [DRSC18806]?
mean viability with MMS: 3.31e6

For CG33296 [DRSC00998], what was measured?
mean viability with MMS: 3.43e6

With Mipp2 [DRSC18682], how do the results read?
mean viability with MMS: 3.58e6

For CG6790 [DRSC16117], how do the results read?
mean viability with MMS: 3.40e6
